# From the GenesisPotency data set
# The chains behind the UniProt entries cited, without tags or fusion partners. Where a name states a change or a piece, a line headed by the entry shows the natural chain unless it says otherwise.
# UniProt P19793: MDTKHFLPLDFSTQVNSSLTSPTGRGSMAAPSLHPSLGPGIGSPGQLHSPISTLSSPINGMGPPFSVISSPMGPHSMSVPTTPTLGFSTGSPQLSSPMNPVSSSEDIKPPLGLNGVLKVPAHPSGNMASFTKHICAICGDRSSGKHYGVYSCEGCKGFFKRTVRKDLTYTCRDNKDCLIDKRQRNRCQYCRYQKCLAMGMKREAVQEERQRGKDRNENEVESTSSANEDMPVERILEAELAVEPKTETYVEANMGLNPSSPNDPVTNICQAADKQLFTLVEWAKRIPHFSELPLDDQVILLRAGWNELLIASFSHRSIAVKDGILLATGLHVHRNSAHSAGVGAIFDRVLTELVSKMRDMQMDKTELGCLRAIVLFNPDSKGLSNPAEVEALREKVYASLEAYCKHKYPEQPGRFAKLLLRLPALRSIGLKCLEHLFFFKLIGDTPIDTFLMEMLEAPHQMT
# The whole screen tested about 9,700 compounds, of which about 180 (1.9%) were called active. Roughly 35% stayed inconclusive and do not appear here. The call rests on the fitted dose curve. The list shows a part of the results.
# Target: Retinoic acid receptor RXR-alpha, Homo sapiens (UniProt P19793)
# Assay: qHTS assay to identify small molecule agonists of the RXR signaling pathway (AID 1159527)
row,Structure (SMILES),outcome
1,[I-].[K+],inactive
